The test concerns the target T1, Halo-SETD2C (1404-2564) (human) (UniProt Q9BYW2).
T1 sequence: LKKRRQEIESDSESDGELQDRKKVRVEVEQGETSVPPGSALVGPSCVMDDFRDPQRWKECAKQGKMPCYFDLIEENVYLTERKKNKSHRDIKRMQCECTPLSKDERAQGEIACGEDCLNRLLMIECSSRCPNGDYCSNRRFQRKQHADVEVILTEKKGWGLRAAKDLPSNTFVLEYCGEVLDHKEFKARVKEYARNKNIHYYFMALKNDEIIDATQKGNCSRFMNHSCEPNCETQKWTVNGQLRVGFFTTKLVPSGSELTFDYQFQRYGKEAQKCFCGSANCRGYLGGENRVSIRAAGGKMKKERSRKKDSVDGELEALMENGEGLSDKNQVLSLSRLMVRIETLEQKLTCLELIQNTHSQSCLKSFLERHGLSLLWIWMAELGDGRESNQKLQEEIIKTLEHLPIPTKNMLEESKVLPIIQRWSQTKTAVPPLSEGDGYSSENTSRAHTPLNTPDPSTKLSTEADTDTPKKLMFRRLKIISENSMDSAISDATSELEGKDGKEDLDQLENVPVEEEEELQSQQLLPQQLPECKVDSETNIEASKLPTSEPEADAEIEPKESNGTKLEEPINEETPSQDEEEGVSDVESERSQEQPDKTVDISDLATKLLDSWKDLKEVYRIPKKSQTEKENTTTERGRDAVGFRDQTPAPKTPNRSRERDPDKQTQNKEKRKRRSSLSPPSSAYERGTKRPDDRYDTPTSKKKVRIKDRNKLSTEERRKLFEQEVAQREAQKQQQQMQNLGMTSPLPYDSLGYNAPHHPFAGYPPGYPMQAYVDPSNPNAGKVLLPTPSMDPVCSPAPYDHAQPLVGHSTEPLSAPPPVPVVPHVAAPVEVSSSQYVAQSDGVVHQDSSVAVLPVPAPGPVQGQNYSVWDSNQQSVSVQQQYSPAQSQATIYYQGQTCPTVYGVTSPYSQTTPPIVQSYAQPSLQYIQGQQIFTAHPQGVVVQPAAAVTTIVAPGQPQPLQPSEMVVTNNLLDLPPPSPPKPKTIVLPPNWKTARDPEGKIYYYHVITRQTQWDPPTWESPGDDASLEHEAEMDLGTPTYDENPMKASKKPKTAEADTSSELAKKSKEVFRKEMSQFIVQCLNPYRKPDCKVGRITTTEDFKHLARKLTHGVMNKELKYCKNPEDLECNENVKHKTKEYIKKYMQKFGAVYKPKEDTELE
Nature of the test: pull-down.

Results are given in words; binding and its absence hold for the method and conditions named. Binding seen in cells or lysates may run through a third protein. Some entries that bind do so weakly or less than the wild type. Sequences can lack the tags named with a protein.

B1: mCherry-HA-hnRNP L 1-95 (domain or fragment, UniProt P14866 1-95)
chain: MSRRLLPRAEKRRRRLEQRQQPDEQRRRSGAMVKMAAAGGGGGGGRYYGGGSEGGRAPKRLKTDNAGDQHGGGGGGGGGAGAAGGGGGGENYDDP
For B1, the binding entry is recorded as “no binding”.

B2: mCherry-HA-hnRNP L 322-589 (domain or fragment, UniProt P14866 322-589)
chain: GGYHSHYHDEGYGPPPPHYEGRRMGPPVGGHRRGPSRYGPQYGHPPPPPPPPEYGPHADSPVLMVYGLDQSKMNCDRVFNVFCLYGNVEKVKFMKSKPGAAMVEMADGYAVDRAITHLNNNFMFGQKLNVCVSKQPAIMPGQSYGLEDGSCSYKDFSESRNNRFSTPEQAAKNRIQHPSNVLHFFNAPLEVTEENFFEICDELGVKRPSSVKVFSGKSERSSSGLLEWESKSDALETLGFLNHYQMKNPNGPYPYTLKLCFSTAQHAS
For the molecule B2, the binding entry is “no binding”.

B3: mCherry-HA-hnRNP L 1-161 (domain or fragment, UniProt P14866 1-161)
chain: MSRRLLPRAEKRRRRLEQRQQPDEQRRRSGAMVKMAAAGGGGGGGRYYGGGSEGGRAPKRLKTDNAGDQHGGGGGGGGGAGAAGGGGGGENYDDPHKTPASPVVHIRGLIDGVVEADLVEALQEFGPISYVVVMPKKRQALVEFEDVLGACNAVNYAADNQ
B3: the binding result was “no binding”.

B4: mCherry-HA-hnRNP L 96-161 (domain or fragment, UniProt P14866 96-161)
chain: HKTPASPVVHIRGLIDGVVEADLVEALQEFGPISYVVVMPKKRQALVEFEDVLGACNAVNYAADNQ
Take B4: the binding entry is given as “no binding”.

B5: mCherry-HA-hnRNP L 162-321 (domain or fragment, UniProt P14866 162-321)
chain: IYIAGHPAFVNYSTSQKISRPGDSDDSRSVNSVLLFTILNPIYSITTDVLYTICNPCGPVQRIVIFRKNGVQAMVEFDSVQSAQRAKASLNGADIYSGCCTLKIEYAKPTRLNVFKNDQDTWDYTNPNLSGQGDPGSNPNKRQRQPPLLGDHPAEYGGPH
In the case of B5, the binding result is “binds”.

B6: mCherry-HA-hnRNP L 1-321 (domain or fragment, UniProt P14866 1-321)
chain: MSRRLLPRAEKRRRRLEQRQQPDEQRRRSGAMVKMAAAGGGGGGGRYYGGGSEGGRAPKRLKTDNAGDQHGGGGGGGGGAGAAGGGGGGENYDDPHKTPASPVVHIRGLIDGVVEADLVEALQEFGPISYVVVMPKKRQALVEFEDVLGACNAVNYAADNQIYIAGHPAFVNYSTSQKISRPGDSDDSRSVNSVLLFTILNPIYSITTDVLYTICNPCGPVQRIVIFRKNGVQAMVEFDSVQSAQRAKASLNGADIYSGCCTLKIEYAKPTRLNVFKNDQDTWDYTNPNLSGQGDPGSNPNKRQRQPPLLGDHPAEYGGPH
Regarding B6, the binding result is on record as “binds”.

B7: mCherry-HA-hnRNP L full-length (1-589) (protein, UniProt P14866 1-589)
chain: MSRRLLPRAEKRRRRLEQRQQPDEQRRRSGAMVKMAAAGGGGGGGRYYGGGSEGGRAPKRLKTDNAGDQHGGGGGGGGGAGAAGGGGGGENYDDPHKTPASPVVHIRGLIDGVVEADLVEALQEFGPISYVVVMPKKRQALVEFEDVLGACNAVNYAADNQIYIAGHPAFVNYSTSQKISRPGDSDDSRSVNSVLLFTILNPIYSITTDVLYTICNPCGPVQRIVIFRKNGVQAMVEFDSVQSAQRAKASLNGADIYSGCCTLKIEYAKPTRLNVFKNDQDTWDYTNPNLSGQGDPGSNPNKRQRQPPLLGDHPAEYGGPHGGYHSHYHDEGYGPPPPHYEGRRMGPPVGGHRRGPSRYGPQYGHPPPPPPPPEYGPHADSPVLMVYGLDQSKMNCDRVFNVFCLYGNVEKVKFMKSKPGAAMVEMADGYAVDRAITHLNNNFMFGQKLNVCVSKQPAIMPGQSYGLEDGSCSYKDFSESRNNRFSTPEQAAKNRIQHPSNVLHFFNAPLEVTEENFFEICDELGVKRPSSVKVFSGKSERSSSGLLEWESKSDALETLGFLNHYQMKNPNGPYPYTLKLCFSTAQHAS
Consider B7, for which the binding result is “binds”.

The values above are taken from article doi:10.1101/2020.06.06.138156 (bioRxiv, 2020).
